# Measurements: PubChem BioAssay AID1745846 (National Center for Advancing Translational Sciences (NCATS), 2022)
# Among all 1,400 compounds or so, about 30 (2%) were called active. Roughly 15% stayed inconclusive and do not appear here. Calls follow the shape of the dose curve; as a rule, active = well fitted inhibition curve with a large enough effect; inconclusive = small, poorly fitted or top-dose-only effect; inactive = flat fitted curve, though single readings scatter. The list shows a part of the results.
# Assay: Firefly Luciferase Counterscreen for Inhibitors of ATXN expression
# Details: luminescence; series mostly up to 57.5 µM; activity change, negative = inhibition: at the top concentration
# Method in brief: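 Recombinant firefly luciferase at 10 nM final in 50 mM Tris pH 7.5, 10 mM MgCl2, 0.05% BSA, 0.01% Tween20 with substrate; compounds up to 57 uM final, 10 min room temperature, end-point luminescence. Buffer-only wells define 100% inhibition.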
# % is scaled to controls: 0 for no effect and ±100 for the full control effect; potency is read from the fitted curve at half-maximal effect.
Compound,"activity change, negative = inhibition",Potency
COc1cccc(CN(C)C(=O)c2ccc(OCC(=O)Nc3cccc(C(F)(F)F)c3)c(OC)c2)c1,inactive: -4.36%,
C/C(=N\NC(=O)COc1cccc(C)c1)c1ccc2ccccc2c1O,inactive: -1.16%,
Cc1cccc(Cn2c(CN3CCN(Cc4ccccc4)CC3)nc3c2c(=O)[nH]c(=O)n3C)c1,inactive: 3.07%,
Oc1ccc(Cc2ccccc2)c2cccnc12,inactive: -8.95%,
c1ccc(COc2ncnc3c2ncn3CCCN2CCN(Cc3cccc4ccccc34)CC2)cc1,inactive: -3.81%,
CCN(CC)c1ccc(/C=C/c2cccc[n+]2C)c(OC)c1,inactive: -12.5%,
O=C(/C=C\c1ccccc1)NCC(=O)N/N=C/c1ccc(O)cc1O,inactive: -11.2%,
C=CCc1cccc(/C=N/NC(=O)C(C)Nc2ccc(C)cc2)c1O (stereo not drawn),inactive: -0.705%,
CCCS(=O)(=O)c1c(S(=O)(=O)CCC)c2c(C)cccn2c1C(=O)N/N=C/c1cc(O)cc(O)c1,inactive: -9.5%,
Cc1cccn2c(=O)c3cc(C(=O)NCCc4ccccc4)c(=N)n(CCCn4ccnc4)c3nc12,inactive: -0.864%,
Cc1ccnc(N2C(=O)c3cccc4c([N+](=O)[O-])ccc(c34)C2=O)c1,inactive: -4.41%,
CCN(CC)CCn1nc2c3c(cccc3c1=O)-c1ccccc1-2,inactive: 0.924%,
COC1CC(C)C(OC)c2cc(O)cc(c2O)NC(=O)C(C)=CC=CC(C)C(OC(N)=O)C(C)=CC(C)C1OC (stereo not drawn),inactive: -11.5%,
COc1ccc(-n2c(-c3ccc(Cl)cc3)c[n+]3c2CCCCC3)cc1,inactive: 1.22%,
CCOc1cc(C=C(C(=O)OC)C(=O)OC)ccc1OCc1ccc([N+](=O)[O-])cc1,inactive: -4.35%,
O=C(CN1CCOCC1)N/N=C/c1c(O)ccc2ccccc12,inactive: -8.22%,
O=C(Nc1ccc(F)cc1)Nc1cc(OCC(F)(F)F)cc(OCC(F)(F)F)c1,inactive: 0.506%,
CN1C2CCC1/C(=C\c1ccccc1)C(=O)/C2=C\c1ccccc1,inactive: 3.04%,
CC1(C(=O)NCc2ccccc2Br)CCN1C(=O)Cc1ccc(-c2ccccc2)cc1 (stereo not drawn),inactive: -4.03%,
COc1cccc(/C=N/NC(=O)CNC(=O)C2COc3ccccc3O2)c1O (stereo not drawn),inactive: -16.3%,
CCC(=O)NC(c1cc(Cl)c2cccnc2c1O)C(C)C (stereo not drawn),inactive: -2.16%,
COc1ccc(CN2CCCN(S(=O)(=O)c3ccc(Br)cc3)CC2)cc1,inactive: -1.76%,
CC(/C=C/c1ccc2c(c1)OCO2)=N\NC(=O)c1cccc([N+](=O)[O-])c1,inactive: -3.14%,
NC(=S)N1OC[C@@H]2COc3ccc4ccccc4c3[C@@H]21,inactive: -5.45%,

# Looked up by compound from the entries so far:
Compound,"activity change, negative = inhibition",Potency
CCN(CC)CCn1nc2c3c(cccc3c1=O)-c1ccccc1-2,inactive: 0.924%,
CCN(CC)c1ccc(/C=C/c2cccc[n+]2C)c(OC)c1,inactive: -12.5%,
O=C(Nc1ccc(F)cc1)Nc1cc(OCC(F)(F)F)cc(OCC(F)(F)F)c1,inactive: 0.506%,

# Remaining list, next part

Compound,"activity change, negative = inhibition",Potency
Cc1ccc(CN2CCC(c3nc4ccc(Cl)cc4[nH]3)CC2)cc1,inactive: 1.24%,
CCCC(=O)NC(c1ccc(C)cc1)c1ccc2cccnc2c1O (stereo not drawn),inactive: -1.75%,
O=C(Nc1cccc2c1CCCC2)c1cc([N+](=O)[O-])ccc1Cl,inactive: 0.758%,
Nc1nc(NCCCN2CCOCC2)nc(Nc2ccccc2F)c1[N+](=O)[O-],inactive: 2.91%,
CN(C)CCNC(=O)c1cccc(-c2cnc3c(NC=O)cc(-c4cccc(C(F)(F)F)c4)cn23)c1,inactive: 0.527%,
O=C(Nc1nccs1)c1cccc(N2C(=O)c3cccc4c([N+](=O)[O-])ccc(c34)C2=O)c1,inactive: 0.335%,
COc1ccc(S(=O)(=O)N(C)C)cc1NC(=O)C1CCN(c2ncnc3sc(C)c(C)c23)CC1,inactive: 2.73%,
C=CCc1cccc(/C=N/NC(=O)CCC(=O)Nc2ccc(F)cc2)c1O,inactive: 2.3%,
CN(CCOc1ccc(Br)cc1)CC(O)COc1ccc(C#N)cc1 (stereo not drawn),inactive: -0.934%,
CCOC(=O)c1cnc(-n2nc(C)cc2C)nc1NNc1nc(-c2ccccc2)cc(-c2ccccc2)n1,inactive: 3.05%,
O=C(NCc1ccccc1Cl)C1CCCN(C(=O)Nc2ccc(F)cc2)C1 (stereo not drawn),inactive: -2.7%,
O=C1/C(=C/c2ccncc2)CCC/C1=C\c1ccncc1,inactive: -3.03%,
O=C(Nc1ccc(Oc2ccc(NC(=O)Nc3ccc([N+](=O)[O-])cc3)cc2)cc1)Nc1ccc([N+](=O)[O-])cc1,inactive: 1.02%,
Cc1ccc2nc(NC(=O)/C=C/c3ccc4c(c3)OCO4)sc2c1,inactive: 1.77%,
Cc1nc(N)nc(N)c1/C=C/C(C)(C)c1ccc(Cl)cc1,inactive: 3.13%,
O=C(NCCc1csc(-c2cccnc2)n1)c1cccc(Cl)c1,inactive: -18.5%,
CCOC(=O)c1c(-n2cccc2)sc2c1CCCC2=O,inactive: -2.33%,
O=C(/C=C/Nc1ccc(S(=O)(=O)Nc2ncccn2)cc1)c1ccc(Cl)c(Cl)c1,inactive: 0.0049%,
CC(NC(=O)Nc1cccc([N+](=O)[O-])c1)(C(F)(F)F)C(F)(F)F,inactive: 2.38%,
Cc1ccc(C)c(NC(=O)CSc2n[nH]c(-c3ccccn3)n2)c1,inactive: -10.6%,
COc1cccc2c1C(=O)C=C(C)C2=O,inactive: -9.52%,
CCN(CC(=O)NC(C)(C)C)Cc1nc2c(Br)cc(Br)cc2c(=O)[nH]1,inactive: -13.1%,
Cn1c(CO)cnc1S(=O)(=O)Cc1ccc([N+](=O)[O-])cc1,inactive: 3.21%,
CCn1cc(C(=O)NCCCN2CCCC(C)C2)c(=O)c2cc(S(=O)(=O)N3CCc4ccccc4C3)ccc21 (stereo not drawn),inactive: 2.04%,

Compound,"activity change, negative = inhibition",Potency
CN(CC(=O)Nc1cccc(F)c1)CC(=O)Nc1cccc2ccccc12,inactive: -3.09%,
Cc1ccc(Cc2cnc(NC(=O)/C(C#N)=C/c3ccc(-c4cccc([N+](=O)[O-])c4)o3)s2)cc1,inactive: 1.02%,
Oc1ccccc1C(Nc1nccs1)c1ccc2cccnc2c1O (stereo not drawn),inactive: -4.63%,
CCn1c(C)cc(C(=O)COC(=O)c2ccccc2[N+](=O)[O-])c1C,,active: 0.0178 µM
CCN1CCN(c2cc(C(C)C)nc3c(-c4ccccc4)c(C)nn23)CC1,inactive: 0.19%,
Cc1nc(N=C(N)N)nc2c(C)cccc12,inactive: -0.148%,
CC[C@H]1CN2CCc3cc(OC)c(OC)cc3C2C[C@@H]1C[C@H]1NCCc2cc(OC)c(OC)cc21 (stereo partly drawn),inactive: 3.56%,
Oc1ccc2ccccc2c1/C=C/c1ccc2c(Br)cc(Br)c(O)c2n1,inactive: -15.1%,
O=C(CSc1n[nH]c(-c2ccccn2)n1)Nc1ccc(F)cc1,inactive: -11.7%,
O=C(Nc1ccc(NC(=O)c2ccc(Cl)cc2Cl)cc1)c1cccs1,inactive: 2.51%,
CCSc1nc2ccccc2n1C(=O)/C=C\c1ccc(OC)c(OC)c1,inactive: -11.1%,
CCc1cc(C)cc(OCCNC(=O)c2cncc(Br)c2)c1,inactive: -3.17%,
CN(C)CCCN(C(=O)c1ccc(S(=O)(=O)N(C)Cc2ccccc2)cc1)c1nc2c(F)cccc2s1,inactive: 1.45%,
COc1ccccc1-n1c(-c2ccccc2)c[n+]2c1CCc1ccccc1-2,inactive: 0.393%,
COC1C=CC=C(C)C(=O)NC2=CC(=O)C(N)=C(CC(C)CC(OC)C(O)C(C)C=C(C)C1OC(N)=O)C2=O (stereo not drawn),inactive: -4.17%,
CCOC(=O)C1CCN(C(=O)c2c(C)oc3c2C(=O)c2ccccc2C3=O)CC1,inactive: -2.65%,
O=c1cc(Nc2ccc3c(c2)OCCO3)[nH]c(=O)n1-c1ccc(Br)cc1,inactive: -10.6%,
CC(=O)Nc1cccc(-c2ccnc3c2CC(C)(C(=O)Nc2ccc(Cl)cc2)O3)c1 (stereo not drawn),inactive: -2.94%,
O=[N+]([O-])c1c(Nc2ccccn2)cc(Cl)c2nonc12,inactive: -10.4%,
CCc1nc2c(OCCOc3ccc(F)cc3)cccn2c1N(C=O)Cc1ccc(OC)cc1,inactive: -0.926%,
CN(CC(=O)NCc1ccc(F)cc1)CC(=O)Nc1ccc(Cl)c(C(F)(F)F)c1,inactive: -3.92%,
COc1cccc(C(NC(C)=O)c2ccc3cccnc3c2O)c1 (stereo not drawn),inactive: 0.801%,
CN(C)CCOc1nc(-c2ccccc2)nc2c1oc1ccccc12,inactive: -2.62%,
CCOP(=O)(OCC)C(Cc1ccccc1)N=C(c1ccccc1)c1ccccc1 (stereo not drawn),inactive: -1.67%,

Compound,"activity change, negative = inhibition",Potency
O=C(CCCN1C(=O)/C(=C/c2ccccc2Cl)SC1=S)NNC(=O)c1ccc(Cl)cc1Cl,inactive: 4.34%,
CCOC(=O)C1=CCN(S(=O)(=O)c2ccc(C)cc2)C1c1cccc(Cl)c1 (stereo not drawn),inactive: -2.12%,
Oc1c(CN2CCCCC2)ccc2cccnc12,inactive: 2.91%,
NS(=O)(=O)c1ccc(N2N=C(c3ccccc3)CC2c2cccc(Br)c2)cc1 (stereo not drawn),inactive: -3.13%,
Cc1cccc(C(=O)N/N=C2\CS(=O)(=O)N(C)c3ccsc32)c1,inactive: -9.38%,
Cc1nn(Cc2ccc(Cl)cc2)c(C)c1NC(=O)c1noc2c1CCc1ccccc1-2,inactive: -2.34%,
COc1cc(C#Cc2c(-c3cncn3C)n(C)c3ccc(-c4cc(OC)c(OC)c(OC)c4)cc23)cc(OC)c1,inactive: -8.96%,
Cn1c(CCN2CCN(c3ccccn3)CC2)nc2cc(NC(=O)COc3ccc(Cl)cc3)ccc21,inactive: -7.6%,
O=C(Nc1ccc(OCC(F)(F)C(F)F)c(C(F)(F)F)c1)c1ccc(Cl)cc1,inactive: -10.6%,
CCOC(=O)c1c(-c2ccccc2)oc2ccc(OCC(=O)NN)cc12,inactive: -4.12%,
COc1cc(C=CC(=O)c2ccccc2)cc(OC)c1OC,inactive: -13%,
Cc1ccc2c(Cl)cc(Cl)c(O)c2n1,inactive: -14.1%,
O=C(NCc1cc(C(F)(F)F)ccc1Cl)c1cccc2c1C(=O)c1ccc(N3CCC(N4CCCCC4)CC3)cc1S2(=O)=O,inactive: -8.15%,
CCc1nc2ccccc2c(C(=O)OCC(=O)Nc2cccc(S(=O)(=O)NC3=NCCCCC3)c2)c1C,inactive: -8.93%,
CCn1cc(C(=O)NCc2cccc(F)c2)c(=O)c2cc(F)c(N3CCN(C(=O)c4ccco4)CC3)cc21,inactive: -6.14%,
COc1cccc(NC(=O)/C=C/c2ccc(S(=O)(=O)N3CCOCC3)cc2)c1,inactive: -7.17%,
Cc1ccc(-c2cc(C(=O)N/N=C/c3ccccc3O)n[nH]2)o1,inactive: -9.4%,
Cc1ccc(C(NC(=O)C2CCN(Cc3ccc(Cl)c(Cl)c3)CC2)c2ccccn2)cc1 (stereo not drawn),inactive: -2.96%,
NC(=O)N/N=C/c1c(O)ccc2oc3c(c12)CCCC3,inactive: -6.32%,
Cc1nc(-c2c(C(F)(F)F)noc2-c2ccc(O)cc2O)cs1,inactive: -4.16%,
COc1ccc(CNC(=O)c2ccc(-c3cccnc3)c3ccoc23)cc1OC,inactive: -13.5%,

# Structures listed so far that have an aryl thioether with sulfur outside any ring (3):
Compound,"activity change, negative = inhibition",Potency
Cc1ccc(C)c(NC(=O)CSc2n[nH]c(-c3ccccn3)n2)c1,inactive: -10.6%,
O=C(CSc1n[nH]c(-c2ccccn2)n1)Nc1ccc(F)cc1,inactive: -11.7%,
CCSc1nc2ccccc2n1C(=O)/C=C\c1ccc(OC)c(OC)c1,inactive: -11.1%,
